Experimental data: PubChem BioAssay AID686938 (Drosophila RNAi Screening Center, 2013)
In all, the deposit lists about 23,000 reagents; shown is a random part of those with a known target gene and a result. In the full data, 75 (0.33%) are marked active. 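Raw plate signals without normalisation; calls rest on plate z-scores that were not deposited; ratio present for only 364 wells.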 Not stated in the record: the dose of the treatment.

Screen: 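Knock-downs reducing store-operated calcium influx in Drosophila cells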 (primary screen)
Cell system: Drosophila S2R+ cells
Knock-down reagent: long dsRNA against Drosophila genes, about 0.25 µg dsRNA per well, roughly 10,000 cells
Duration: 5 days of knock-down before the calcium assay
Conditions: thapsigargin (SERCA pump blocker) to empty calcium stores; entry signal taken 4 min after adding it
Measured: 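Per-well fluo-4 fluorescence in two replicates, unnormalised, measured in resting cells and 4 min after store depletion by the SERCA blocker thapsigargin; ratio of the two present in few wells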
Reading the numbers: calcium entry signal: higher = stronger calcium signal after store depletion; entry to resting ratio: higher = more calcium entry relative to resting level; resting calcium signal: higher = higher resting calcium signal
Active means: 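Hit if the duplicate-averaged plate z-score for entry over resting signal is under −3; wells with weak total dye signal (Fmax z < −2) or more than 5 off-targets removed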
Meaning of the calls: active = strongly reduced calcium entry; inactive = no strong reduction

| gene | dsRNA | calcium entry signal, replicate 1 (fluorescence units) | calcium entry signal, replicate 2 (fluorescence units) | entry to resting ratio | resting calcium signal, replicate 1 (fluorescence units) | resting calcium signal, replicate 2 (fluorescence units) | Outcome |
| --- | --- | --- | --- | --- | --- | --- | --- |
| Caf1-180 (Chromatin assembly factor 1, p180 subunit) | DRSC17807 | 2.07e7 | 2.24e7 | – | 1.19e7 | 1.22e7 | inactive |
| CG13244 | DRSC21642 | 2.71e7 | 3.12e7 | – | 1.70e7 | 1.50e7 | inactive |
| CG15312 | DRSC18000 | 4.08e7 | 4.25e7 | – | 1.82e7 | 1.95e7 | inactive |
| beta'COP (Coat Protein (coatomer) beta') | DRSC03492 | 1.76e7 | – | – | 1.56e7 | – | inactive |
| CG33257 | DRSC09917 | 3.69e7 | 5.45e7 | – | 1.72e7 | 2.35e7 | inactive |
| kek6 (kekkon 6) | DRSC15299 | 3.75e7 | 3.88e7 | 2.1 | 1.80e7 | 1.78e7 | inactive |
| CG10958 | DRSC17768 | 2.86e7 | 2.03e7 | – | 1.25e7 | 9.42e6 | inactive |
| Rpt3 (Regulatory particle triple-A ATPase 3) | DRSC20283 | 2.11e7 | 2.52e7 | – | 1.55e7 | 1.73e7 | inactive |
| CG46491 | DRSC06565 | 2.24e7 | 2.22e7 | – | 1.00e7 | 1.09e7 | inactive |
| CG46491 | DRSC06566 | 4.87e7 | 4.48e7 | – | 2.00e7 | 2.17e7 | inactive |
| Sptz (Spastizin) | DRSC15758 | 3.06e7 | 2.65e7 | – | 1.46e7 | 1.35e7 | inactive |
| Ogdh (Oxoglutarate dehydrogenase) | DRSC09854 | 1.95e7 | 3.07e7 | – | 9.32e6 | 1.90e7 | inactive |
| Ogdh (Oxoglutarate dehydrogenase) | DRSC09855 | 3.55e7 | 4.53e7 | – | 1.80e7 | 1.67e7 | inactive |
| Obp58d (Odorant-binding protein 58d) | DRSC04162 | 3.90e7 | 4.03e7 | – | 1.91e7 | 1.84e7 | inactive |
| CG42404 | DRSC15558 | 3.47e7 | 3.93e7 | – | 1.78e7 | 6.30e7 | inactive |
| ACOX1 (acyl-CoA oxidase 1) | DRSC05941 | 3.44e7 | 3.62e7 | – | 1.55e7 | 1.77e7 | inactive |

Not a retest: 2 of the entries above.
| gene | dsRNA | calcium entry signal, replicate 1 (fluorescence units) | calcium entry signal, replicate 2 (fluorescence units) | entry to resting ratio | resting calcium signal, replicate 1 (fluorescence units) | resting calcium signal, replicate 2 (fluorescence units) | Outcome |
| --- | --- | --- | --- | --- | --- | --- | --- |
| Sptz (Spastizin) | DRSC15758 | 3.06e7 | 2.65e7 | – | 1.46e7 | 1.35e7 | inactive |
| Ogdh (Oxoglutarate dehydrogenase) | DRSC09854 | 1.95e7 | 3.07e7 | – | 9.32e6 | 1.90e7 | inactive |

More results:
| gene | dsRNA | calcium entry signal, replicate 1 (fluorescence units) | calcium entry signal, replicate 2 (fluorescence units) | entry to resting ratio | resting calcium signal, replicate 1 (fluorescence units) | resting calcium signal, replicate 2 (fluorescence units) | Outcome |
| --- | --- | --- | --- | --- | --- | --- | --- |
| sug (sugarbabe) | DRSC06855 | 4.55e7 | 4.60e7 | – | 1.78e7 | 2.06e7 | inactive |
| CG42365 | DRSC04266 | 4.30e7 | 4.90e7 | – | 2.09e7 | 2.01e7 | inactive |
| sif (still life) | DRSC08759 | 4.08e7 | 4.99e7 | – | 2.10e7 | 2.28e7 | inactive |
| sif (still life) | DRSC11395 | 3.69e7 | 5.08e7 | – | 1.68e7 | 2.04e7 | inactive |
| sif (still life) | DRSC22065 | 3.74e7 | 6.08e7 | – | 1.71e7 | 2.99e7 | inactive |
| sif (still life) | DRSC22828 | 2.46e7 | 4.04e7 | – | 1.35e7 | 1.84e7 | inactive |
| PsGEF (Protostome-specific GEF) | DRSC18596 | 2.04e7 | 3.95e7 | 1.9 | 1.05e7 | 1.58e7 | inactive |
| PsGEF (Protostome-specific GEF) | DRSC18600 | 2.84e7 | 3.66e7 | 2 | 1.42e7 | 1.56e7 | inactive |
| PsGEF (Protostome-specific GEF) | DRSC18601 | 3.31e7 | 4.26e7 | 2.2 | 1.54e7 | 1.77e7 | inactive |
